# From PMC12703665 (Journal of the American Chemical Society, 2025)
# Experiment: peptide synthesis
# Conditions: conjugation step
substance,measurement,value
pepa-pic2-C-Hex-KuE,conjugation yield,39%
